Laboratory results published in publication PMC8830656.
These are yes or no findings as the source states them, for the method shown. Binding seen in cells or lysates may run through a third protein. Some binding calls cover weakened binding; strength is not graded here. Tags and fused reporters may be left off the sequences shown.

T1: GPI-AP Gas1 tagged with GFP (yeast) (UniProt P22146)
T1 sequence (chain, GPI anchor (glycolipid)): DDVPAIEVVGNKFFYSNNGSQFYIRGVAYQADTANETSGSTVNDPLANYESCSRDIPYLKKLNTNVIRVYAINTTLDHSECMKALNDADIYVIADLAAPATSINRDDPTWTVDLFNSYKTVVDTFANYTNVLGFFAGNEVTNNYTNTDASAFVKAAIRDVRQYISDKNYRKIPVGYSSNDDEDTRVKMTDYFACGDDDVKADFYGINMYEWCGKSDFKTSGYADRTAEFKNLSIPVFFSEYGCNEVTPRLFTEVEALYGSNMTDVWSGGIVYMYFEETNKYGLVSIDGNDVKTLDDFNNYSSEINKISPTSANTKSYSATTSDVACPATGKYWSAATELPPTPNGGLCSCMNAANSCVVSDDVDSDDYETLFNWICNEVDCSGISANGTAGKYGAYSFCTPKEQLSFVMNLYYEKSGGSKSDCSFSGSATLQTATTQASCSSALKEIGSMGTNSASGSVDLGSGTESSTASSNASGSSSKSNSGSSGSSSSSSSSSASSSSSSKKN

B1: p24 complex component Emp24 (protein, UniProt P32803 21-203)
chain: HNVLLPAYGRRCFFEDLSKGDELSISFQFGDRNPQSSSQLTGDFIIYGPERHEVLKTVRDTSHGEITLSAPYKGHFQYCFLNENTGIETKDVTFNIHGVVYVDLDDPNTNTLDSAVRKLSKLTREVKDEQSYIVIRERTHRNTAESTNDRVKWWSIFQLGVVIANSLFQIYYLRRFFEVTSLV
B2: unrelated cytosolic protein Pgk1 (protein, UniProt P00560 1-416)
chain: MSLSSKLSVQDLDLKDKRVFIRVDFNVPLDGKKITSNQRIVAALPTIKYVLEHHPRYVVLASHLGRPNGERNEKYSLAPVAKELQSLLGKDVTFLNDCVGPEVEAAVKASAPGSVILLENLRYHIEEEGSRKVDGQKVKASKEDVQKFRHELSSLADVYINDAFGTAHRAHSSMVGFDLPQRAAGFLLEKELKYFGKALENPTRPFLAILGGAKVADKIQLIDNLLDKVDSIIIGGGMAFTFKKVLENTEIGDSIFDKAGAEIVPKLMEKAKAKGVEVVLPVDFIIADAFSADANTKTVTDKEGIPAGWQGLDNGPESRKLFAATVAKAKTIVWNGPPGVFEFEKFAAGTKALLDEVVKSSAAGNTVIIGGGDTATVAKKYGVTDKISHVSTGGGASLELLEGKELPGVAFLSEKK
B3: Sec24, the major COPII cargo binding isoform (protein, UniProt P40482 1-926)
chain: MSHHKKRVYPQAQLQYGQNATPLQQPAQFMPPQDPAAAGMSYGQMGMPPQGAVPSMGQQQFLTPAQEQLHQQIDQATTSMNDMHLHNVPLVDPNAYMQPQVPVQMGTPLQQQQQPMAAPAYGQPSAAMGQNMRPMNQLYPIDLLTELPPPITDLTLPPPPLVIPPERMLVPSELSNASPDYIRSTLNAVPKNSSLLKKSKLPFGLVIRPYQHLYDDIDPPPLNEDGLIVRCRRCRSYMNPFVTFIEQGRRWRCNFCRLANDVPMQMDQSDPNDPKSRYDRNEIKCAVMEYMAPKEYTLRQPPPATYCFLIDVSQSSIKSGLLATTINTLLQNLDSIPNHDERTRISILCVDNAIHYFKIPLDSENNEESADQINMMDIADLEEPFLPRPNSMVVSLKACRQNIETLLTKIPQIFQSNLITNFALGPALKSAYHLIGGVGGKIIVVSGTLPNLGIGKLQRRNESGVVNTSKETAQLLSCQDSFYKNFTIDCSKVQITVDLFLASEDYMDVASLSNLSRFTAGQTHFYPGFSGKNPNDIVKFSTEFAKHISMDFCMETVMRARGSTGLRMSRFYGHFFNRSSDLCAFSTMPRDQSYLFEVNVDESIMADYCYVQVAVLLSLNNSQRRIRIITLAMPTTESLAEVYASADQLAIASFYNSKAVEKALNSSLDDARVLINKSVQDILATYKKEIVVSNTAGGAPLRLCANLRMFPLLMHSLTKHMAFRSGIVPSDHRASALNNLESLPLKYLIKNIYPDVYSLHDMADEAGLPVQTEDGEATGTIVLPQPINATSSLFERYGLYLIDNGNELFLWMGGDAVPALVFDVFGTQDIFDIPIGKQEIPVVENSEFNQRVRNIINQLRNHDDVITYQSLYIVRGASLSEPVNHASAREVATLRLWASSTLVEDKILNNESYREFLQIMKARISK

How the values were obtained:
[1] = molecular target: T1, GPI-AP Gas1 tagged with GFP (yeast); experiment: co-IP; extract of wild-type yeast strain without DSP, solubilized with digitonin, Gas1-GFP immunoprecipitated with GFP-Trap, immunoblotting
[2] = molecular target: T1, GPI-AP Gas1 tagged with GFP (yeast); experiment: cross-linking + co-IP; extract of wild-type yeast strain incubated with the crosslinker DSP, solubilized with digitonin, Gas1-GFP immunoprecipitated with GFP-Trap, crosslinks cleaved under reducing conditions, immunoblotting

Binder	binding [1]	binding [2]
B1	binds	binds
B2		no binding
B3		no binding
